Measured values: PubChem BioAssay AID504847 (National Center for Advancing Translational Sciences (NCATS), 2011)
Out of some 400,000 compounds screened, about 3,700 (0.93%) were called active. The shares of active, inactive and inconclusive entries below differ from those in the screen. The call rests on the fitted dose curve; in most records, active means well fitted inhibition curve with a large enough effect; inconclusive means small, poorly fitted or top-dose-only effect, or another doubt; inactive means no such curve, though single readings can be large or run the other way. Potencies beside an inconclusive call are fits to weak or partial responses and may not hold up.

Sequences of proteins named here, by UniProt entry; tags and fusion partners are left off. A change or cut given only in a name is not applied to a line headed by its entry.
UniProt P11473: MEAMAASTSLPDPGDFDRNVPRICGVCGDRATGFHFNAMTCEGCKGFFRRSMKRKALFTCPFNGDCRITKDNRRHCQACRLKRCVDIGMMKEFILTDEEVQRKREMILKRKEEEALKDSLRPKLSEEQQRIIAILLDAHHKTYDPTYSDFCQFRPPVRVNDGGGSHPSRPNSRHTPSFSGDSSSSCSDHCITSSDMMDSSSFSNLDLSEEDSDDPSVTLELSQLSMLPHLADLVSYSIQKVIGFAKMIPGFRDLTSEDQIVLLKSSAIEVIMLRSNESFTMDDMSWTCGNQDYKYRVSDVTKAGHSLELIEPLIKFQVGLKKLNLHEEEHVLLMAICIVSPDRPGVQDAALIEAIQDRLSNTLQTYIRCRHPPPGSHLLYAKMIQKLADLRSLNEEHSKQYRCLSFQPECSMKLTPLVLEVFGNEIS

target: Vitamin D3 receptor (Homo sapiens) (UniProt P11473); test: Inhibitors of the vitamin D receptor (VDR): qHTS; settings: VDR-SRC2-3 peptide fluorescence polarization, 2 h; max response, negative = inhibition: hits give low values
Procedure, shortened: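 After 23 nl compound addition and a short centrifugation, plates sat for 2 hours at ambient temperature; polarization of fluorescence then indicated loss of VDR binding to peptide SRC2-3.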
On the % scale 0 is the no-effect control and ±100 the full control effect; potency means the concentration at half of the fitted maximal effect.

Max response, negative = inhibition, inactive:
N#Cc1nc(-c2cccc3ccccc23)oc1N1CCCCC1 15.7%
CC1(C)C(=O)N(c2ccccc2Cl)C(=O)c2ccccc21 8.8%
COc1ccc(C)cc1NS(=O)(=O)c1ccc2c(c1)CCCN2C(C)=O 3.19%
O=C(CSc1nc(=O)n2ccccc2n1)Nc1cccc2ccccc12 21.3%
CCCC(c1nnnn1Cc1ccccc1)N1CCN(c2ccccc2OC)CC1 (stereo not drawn) 9.84%
COc1ccc(-c2c(C#N)c(SCC(=O)Nc3ccc(C)c(C)c3)nc(C)c2C(=O)Nc2ccccc2)cc1OC 12.8%
COc1cccc(/C=N/Nc2nn3cnnc3c3ccccc23)c1 -7.17%
N#C/C(=C\Nc1ccccc1O)c1nc2ccccc2o1 -25.2%
Cn1cnc(S(=O)(=O)N2CCC(C(=O)Nc3ccc(OC(F)(F)F)cc3)CC2)c1 13.4%
COc1ccc(S(=O)(=O)Nc2cccc(F)c2)cc1C -2.66%
COc1ccc(-c2cc3ccc(OCc4nn[nH]n4)cc3oc2=O)cc1OC -1.39%
COc1ccc(-c2nc(CSCC(=O)NCCc3ccc(OC)c(OC)c3)c(C)o2)cc1 7.79%
Oc1ccc(/C=N/NC(=S)NCCN2CCOCC2)c(O)c1 -13.8%
O=C(CSCCS(=O)(=O)c1ccc(Cl)cc1)Nc1ccccc1 1.39%
COc1ccc(NC(=O)N/C=C/c2ccco2)cc1 9.34%
Oc1ccccc1-c1nc2c3ccccc3c3ccccc3c2[nH]1 -2.15%
Cc1ccc(C(=O)Nc2ccccc2N2CCCCC2)cc1 -0.778%
CCC1C(C#N)=C(N)OC2=C1C(=O)CC(C)(C)C2 (stereo not drawn) 9.02%
CN(CCOc1ccc(-c2ccn(S(=O)(=O)c3cccc4ccccc34)n2)cc1)c1ccccn1 10.6%
O=C(NNc1c2ccccc2nc2ccccc12)c1ccc(O)cc1O 8.34%
CCc1ccc(CNC(=O)C2CCN(C(=O)c3ccc(-n4ccc5ccccc54)s3)CC2)cc1 7.87%
O=C(NS(=O)(=O)Nc1ccccc1)C1=C(N2CCCC2)COC1=O -16.3%
O=C(CNC(=O)c1cccc(Cl)c1)N/N=C/c1cccnc1 -26.6%
Cc1cc(C)c2nc(NNC(=O)c3ccc(S(=O)(=O)N4CCc5ccccc5C4)cc3)sc2c1 7.23%
CCOc1ccccc1N1CC(c2nc3ccccc3n2CCOc2ccccc2OC)CC1=O (stereo not drawn) 2.36%
COc1cccc2cc(-c3n[nH]c(=S)n3C)oc12 2.61%
Cc1ccc(-n2c(SCc3ccccc3C)nc3[nH]ncc3c2=O)cc1C 5.48%
N#C/C(=C\c1ccc(-c2ccc(Cl)c(C(=O)O)c2)o1)c1nc2ccccc2[nH]1 -13.5%

Potency, active:
O=C(Nc1cccc(C(F)(F)F)c1)c1ccc2nc(-c3ccco3)c(-c3ccco3)nc2c1 20 µM
COc1ccc(OC)c(C2CC(=O)N3CN(c4ccccc4)CSC3=C2C#N)c1 (stereo not drawn) 20 µM

Potency, inconclusive:
CC1(c2nnc(-c3ccc(F)cc3)o2)CC(c2ccc(F)cc2)=NO1 (stereo not drawn) 100 µM [inhibitor, partial curve, poor fit]
CN(C)c1ccc(/C=N/NC(=O)C(O)(c2ccccc2)c2ccccc2)o1 25.1 µM [inhibitor, single point]
COc1ccc(NC(=O)CCCS(=O)(=O)c2nc(-c3ccccc3OC)cc(C(F)(F)F)n2)c(OC)c1 14.1 µM [inhibitor, partial curve]
COc1ccc(NC(=O)Nc2ccc(O)c3ccccc23)cc1 79.4 µM [inhibitor, partial curve]
COc1cc(/C=N/n2cnnc2)ccc1OC(=O)c1cccnc1 28.2 µM [inhibitor, single point]
Cc1cc2ccccc2n1CCNC(=O)c1cccs1 100 µM [inhibitor, single point]
CCCCCCCCCCCCCCSCC(=O)O 12.6 µM [inhibitor, full curve]
CCOCCn1c(SCCc2ccccc2)nc2c1c(=O)[nH]c(=O)n2C 89.1 µM [inhibitor, single point]
CCCC(CCC)C(=O)Oc1cc(C)[nH]c(=O)c1[N+](=O)[O-] 89.1 µM [inhibitor, partial curve, poor fit]
CCN(CC)c1cc(NC2CCCCC2)c2c3c(onc13)-c1ccccc1C2=O 89.1 µM [inhibitor, single point]
O=C(O)CN1C(=O)/C(=C\c2cc([N+](=O)[O-])ccc2OCc2ccccc2Cl)SC1=S 79.4 µM [inhibitor, partial curve, poor fit]
O=C(Nc1nc(-c2ccncc2)cs1)C1COc2ccccc2O1 (stereo not drawn) 15.8 µM [inhibitor, full curve, poor fit]
O=C(CSc1nc2ccccc2n1S(=O)(=O)c1ccccc1)N1CCCC1 89.1 µM [inhibitor, single point]
O=C(NCc1ccc(F)cc1)C1CCN(c2cnccn2)CC1 39.8 µM [inhibitor, single point]
O=C1C(=O)N(Cc2cccc([N+](=O)[O-])c2)c2ccccc21 89.1 µM [inhibitor, single point]
C=CCSC1=NC(=O)/C(=C/c2cccs2)S1 56.2 µM [inhibitor, partial curve, poor fit]
NS(=O)(=O)c1c(Sc2ccccc2C(=O)O)ccc2ccccc12 0.631 µM [inhibitor, full curve, poor fit]
Cc1ccc(/C=C/C(=O)NC2CCCCCCC2)o1 70.8 µM [inhibitor, partial curve, poor fit]
O=S(=O)(c1ccc(Cl)c(NC(=S)Nc2cccc(O)c2)c1)N1CCOCC1 79.4 µM [inhibitor, partial curve]
CCn1ccnc1CN1CCc2c([nH]c3ccccc23)C1C1CCCCC1 (stereo not drawn) 89.1 µM [inhibitor, single point]
Cc1ccc(NC(=O)C2=C(c3ccccc3)S(=O)(=O)CCS2(=O)=O)cc1 11.2 µM [inhibitor, full curve, poor fit]
COc1ccccc1CNC(=O)CCS(=O)(=O)Cc1ccc(C)cc1 39.8 µM [inhibitor, single point]
N#C/C(=C\c1c(Oc2ccc(F)cc2)nc2ccccn2c1=O)c1nc2ccccc2s1 56.2 µM [inhibitor, partial curve, poor fit]
Cc1ccccc1CS(=O)(=O)c1ncc(Cl)c(C(=O)Nc2nnc(C(C)C)s2)n1 20 µM [inhibitor, partial curve, poor fit]
COc1ccccc1COc1ccc2c(C)c(CCC(=O)O)c(=O)oc2c1C 89.1 µM [inhibitor, single point]
CC(=O)C1=C(O)C(=O)N(c2ccc(Br)cn2)C1c1ccc(Br)cc1 (stereo not drawn) 39.8 µM [inhibitor, partial curve, poor fit]
N#C/C(=C/c1ccc(N2CCCCCC2)o1)c1ccc(F)cc1 25.1 µM [inhibitor, partial curve, poor fit]
Cc1ccc(S(=O)(=O)CCC(=O)Oc2ccc3c(C)cc(=O)oc3c2)cc1 79.4 µM [inhibitor, partial curve, poor fit]
COc1cc(/C=C(\C#N)c2ccccn2)ccc1OCC(=O)Nc1c(Cl)cccc1Cl 70.8 µM [inhibitor, partial curve]
Cc1[nH]n(-c2ccccc2)c(=O)c1/C=N/N(C)c1ccccc1 79.4 µM [inhibitor, partial curve, poor fit]
COC(=O)Cn1cc(/C=C/[N+](=O)[O-])c2ccccc21 56.2 µM [inhibitor, partial curve, poor fit]
COc1ccc(Oc2ccc(/C=C/C(=O)c3ccc(O)cc3)cc2[N+](=O)[O-])cc1 70.8 µM [inhibitor, partial curve]
CCN(CC)S(=O)(=O)c1ccc(/C=C/C(=O)Nc2ccc(F)cc2F)cc1 100 µM [inhibitor, single point]
O=Cc1ccccc1OCCOc1ccc([N+](=O)[O-])cc1 28.2 µM [inhibitor, partial curve, poor fit]
Oc1ccc(NCc2ccccc2OCc2ccccc2Cl)cc1 56.2 µM [inhibitor, partial curve, poor fit]
CN1CCN(C(=O)CCc2nnc3ccc(N4CCC5(CC4)OCCO5)nn23)CC1 1.12 µM [inhibitor, partial curve, poor fit]
COC(=O)c1ccc(NC(=O)CSc2nc3c(c(=O)n(C)c(=O)n3C)n2Cc2ccccc2)cc1 56.2 µM [inhibitor, partial curve, poor fit]
O=C(CSc1nnc(C2CC2)n1Cc1ccccc1)c1cc2ccccc2o1 50.1 µM [inhibitor, partial curve, poor fit]

Random excerpt: 4 compounds from above.
Potency, inconclusive:
CN(C)c1ccc(/C=N/NC(=O)C(O)(c2ccccc2)c2ccccc2)o1 25.1 µM [inhibitor, single point]
Cc1ccc(S(=O)(=O)CCC(=O)Oc2ccc3c(C)cc(=O)oc3c2)cc1 79.4 µM [inhibitor, partial curve, poor fit]
O=S(=O)(c1ccc(Cl)c(NC(=S)Nc2cccc(O)c2)c1)N1CCOCC1 79.4 µM [inhibitor, partial curve]
O=C1C(=O)N(Cc2cccc([N+](=O)[O-])c2)c2ccccc21 89.1 µM [inhibitor, single point]
